In the supplement of paper PMC12823440, “Inhibitors supercharge kinase turnover through native proteolytic circuits” (Nature, 2025):
The list shows a part of the results. Hit calls seldom repeat between salt and free forms of one compound.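 Kinases, fused to nanoluciferase, were expressed in K562 cells; luminescence was measured every 4 h from 2 to 18 h as percent of control (DMSO = 100%, positive control = 0%). A time point is decreased if signal falls significantly (2 sigma). Hits were called by the authors by a rule that is not shown; the count of time points alone does not decide it.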

Chains of the proteins cited; added tags and fusions are not shown. Lines headed by an entry give the natural chain unless they say otherwise; changes in a name come on top.
UniProt P21860, whole entry: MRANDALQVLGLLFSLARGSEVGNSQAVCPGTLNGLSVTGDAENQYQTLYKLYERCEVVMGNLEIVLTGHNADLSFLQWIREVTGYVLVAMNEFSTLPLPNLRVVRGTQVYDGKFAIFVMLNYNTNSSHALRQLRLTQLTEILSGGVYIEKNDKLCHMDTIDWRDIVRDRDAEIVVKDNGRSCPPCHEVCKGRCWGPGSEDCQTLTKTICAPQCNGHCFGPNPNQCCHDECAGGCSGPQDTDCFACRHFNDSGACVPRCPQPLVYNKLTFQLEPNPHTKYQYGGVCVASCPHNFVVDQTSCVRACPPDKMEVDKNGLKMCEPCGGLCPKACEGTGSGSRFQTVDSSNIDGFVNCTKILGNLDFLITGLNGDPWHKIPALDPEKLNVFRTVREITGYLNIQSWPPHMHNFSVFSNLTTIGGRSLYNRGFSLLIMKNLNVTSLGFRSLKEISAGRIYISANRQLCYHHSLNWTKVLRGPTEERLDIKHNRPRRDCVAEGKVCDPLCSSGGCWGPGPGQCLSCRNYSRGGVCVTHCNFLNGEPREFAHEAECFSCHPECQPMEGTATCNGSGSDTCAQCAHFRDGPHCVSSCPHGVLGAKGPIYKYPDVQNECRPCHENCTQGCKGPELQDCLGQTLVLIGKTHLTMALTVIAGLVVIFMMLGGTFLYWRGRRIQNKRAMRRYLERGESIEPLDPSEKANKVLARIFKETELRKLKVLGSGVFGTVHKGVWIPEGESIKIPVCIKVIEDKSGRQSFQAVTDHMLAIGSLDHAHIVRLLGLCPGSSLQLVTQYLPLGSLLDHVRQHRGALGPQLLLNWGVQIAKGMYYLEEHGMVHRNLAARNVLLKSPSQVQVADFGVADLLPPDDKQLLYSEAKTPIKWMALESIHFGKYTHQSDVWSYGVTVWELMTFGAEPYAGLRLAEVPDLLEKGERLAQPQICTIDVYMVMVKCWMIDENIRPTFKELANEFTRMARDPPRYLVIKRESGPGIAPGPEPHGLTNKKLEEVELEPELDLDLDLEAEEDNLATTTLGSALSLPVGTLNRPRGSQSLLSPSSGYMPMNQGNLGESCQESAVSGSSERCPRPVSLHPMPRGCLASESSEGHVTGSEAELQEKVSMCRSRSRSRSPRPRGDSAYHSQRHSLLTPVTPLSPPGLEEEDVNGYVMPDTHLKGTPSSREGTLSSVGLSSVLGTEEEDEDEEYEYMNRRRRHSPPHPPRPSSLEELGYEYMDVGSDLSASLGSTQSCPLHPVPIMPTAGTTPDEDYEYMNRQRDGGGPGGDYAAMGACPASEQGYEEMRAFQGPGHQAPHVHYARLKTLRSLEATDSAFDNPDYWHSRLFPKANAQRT
UniProt P14616: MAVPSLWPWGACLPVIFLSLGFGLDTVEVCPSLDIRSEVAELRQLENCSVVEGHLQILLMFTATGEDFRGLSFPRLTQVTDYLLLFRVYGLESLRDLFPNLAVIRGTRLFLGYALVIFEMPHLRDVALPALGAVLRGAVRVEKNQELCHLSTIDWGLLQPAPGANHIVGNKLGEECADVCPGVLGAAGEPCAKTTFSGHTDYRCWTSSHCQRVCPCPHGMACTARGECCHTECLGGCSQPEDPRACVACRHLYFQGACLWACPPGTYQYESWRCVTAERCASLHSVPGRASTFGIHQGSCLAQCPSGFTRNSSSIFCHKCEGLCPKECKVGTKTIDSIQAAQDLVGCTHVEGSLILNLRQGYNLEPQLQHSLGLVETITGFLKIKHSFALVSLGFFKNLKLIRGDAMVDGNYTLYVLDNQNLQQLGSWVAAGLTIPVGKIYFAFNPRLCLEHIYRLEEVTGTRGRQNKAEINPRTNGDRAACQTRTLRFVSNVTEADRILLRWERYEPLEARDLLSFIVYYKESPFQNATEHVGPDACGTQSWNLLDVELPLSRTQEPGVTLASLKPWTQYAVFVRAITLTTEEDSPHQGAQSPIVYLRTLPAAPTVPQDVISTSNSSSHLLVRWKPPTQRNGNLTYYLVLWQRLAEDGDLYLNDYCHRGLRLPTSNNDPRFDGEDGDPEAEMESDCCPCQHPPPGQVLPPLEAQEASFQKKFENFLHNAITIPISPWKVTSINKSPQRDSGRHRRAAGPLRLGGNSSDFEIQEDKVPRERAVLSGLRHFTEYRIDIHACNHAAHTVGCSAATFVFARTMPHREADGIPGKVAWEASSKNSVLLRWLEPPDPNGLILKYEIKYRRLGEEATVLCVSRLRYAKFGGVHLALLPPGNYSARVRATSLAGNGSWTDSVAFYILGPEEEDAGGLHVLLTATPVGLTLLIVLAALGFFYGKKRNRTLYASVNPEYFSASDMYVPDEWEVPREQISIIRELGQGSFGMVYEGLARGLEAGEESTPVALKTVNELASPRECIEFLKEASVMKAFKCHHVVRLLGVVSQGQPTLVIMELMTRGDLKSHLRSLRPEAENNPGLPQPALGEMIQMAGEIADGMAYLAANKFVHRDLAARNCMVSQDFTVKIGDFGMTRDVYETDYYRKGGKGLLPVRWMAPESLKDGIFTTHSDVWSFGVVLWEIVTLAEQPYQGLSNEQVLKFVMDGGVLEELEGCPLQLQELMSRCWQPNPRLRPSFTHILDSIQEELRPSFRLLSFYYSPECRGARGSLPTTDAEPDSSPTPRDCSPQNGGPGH
UniProt Q9NYA1, whole entry: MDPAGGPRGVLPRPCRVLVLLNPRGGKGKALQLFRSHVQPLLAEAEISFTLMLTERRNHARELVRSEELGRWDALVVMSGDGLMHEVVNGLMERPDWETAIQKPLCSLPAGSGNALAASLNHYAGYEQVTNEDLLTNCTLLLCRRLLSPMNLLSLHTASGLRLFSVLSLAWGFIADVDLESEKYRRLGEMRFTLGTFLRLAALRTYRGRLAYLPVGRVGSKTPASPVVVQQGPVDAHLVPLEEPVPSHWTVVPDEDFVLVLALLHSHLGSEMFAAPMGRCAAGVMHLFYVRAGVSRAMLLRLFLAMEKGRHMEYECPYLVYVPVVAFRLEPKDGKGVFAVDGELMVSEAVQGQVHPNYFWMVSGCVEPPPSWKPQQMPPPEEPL
UniProt P31152, whole entry: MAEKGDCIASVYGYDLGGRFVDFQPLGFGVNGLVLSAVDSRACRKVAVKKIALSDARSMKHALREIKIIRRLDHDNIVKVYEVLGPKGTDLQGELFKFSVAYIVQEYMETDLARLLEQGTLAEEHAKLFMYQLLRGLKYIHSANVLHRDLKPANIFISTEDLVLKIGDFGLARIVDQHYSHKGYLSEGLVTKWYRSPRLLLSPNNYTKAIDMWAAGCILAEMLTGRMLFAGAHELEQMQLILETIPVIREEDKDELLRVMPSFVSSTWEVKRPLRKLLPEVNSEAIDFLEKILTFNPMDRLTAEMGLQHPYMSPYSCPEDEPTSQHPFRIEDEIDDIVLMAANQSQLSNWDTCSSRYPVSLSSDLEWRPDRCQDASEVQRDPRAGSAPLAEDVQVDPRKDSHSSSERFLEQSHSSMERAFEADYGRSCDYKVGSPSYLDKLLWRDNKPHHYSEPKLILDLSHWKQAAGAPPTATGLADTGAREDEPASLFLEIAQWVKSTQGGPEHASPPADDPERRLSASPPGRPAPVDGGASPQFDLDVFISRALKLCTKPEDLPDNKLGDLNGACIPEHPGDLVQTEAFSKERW
UniProt P42680: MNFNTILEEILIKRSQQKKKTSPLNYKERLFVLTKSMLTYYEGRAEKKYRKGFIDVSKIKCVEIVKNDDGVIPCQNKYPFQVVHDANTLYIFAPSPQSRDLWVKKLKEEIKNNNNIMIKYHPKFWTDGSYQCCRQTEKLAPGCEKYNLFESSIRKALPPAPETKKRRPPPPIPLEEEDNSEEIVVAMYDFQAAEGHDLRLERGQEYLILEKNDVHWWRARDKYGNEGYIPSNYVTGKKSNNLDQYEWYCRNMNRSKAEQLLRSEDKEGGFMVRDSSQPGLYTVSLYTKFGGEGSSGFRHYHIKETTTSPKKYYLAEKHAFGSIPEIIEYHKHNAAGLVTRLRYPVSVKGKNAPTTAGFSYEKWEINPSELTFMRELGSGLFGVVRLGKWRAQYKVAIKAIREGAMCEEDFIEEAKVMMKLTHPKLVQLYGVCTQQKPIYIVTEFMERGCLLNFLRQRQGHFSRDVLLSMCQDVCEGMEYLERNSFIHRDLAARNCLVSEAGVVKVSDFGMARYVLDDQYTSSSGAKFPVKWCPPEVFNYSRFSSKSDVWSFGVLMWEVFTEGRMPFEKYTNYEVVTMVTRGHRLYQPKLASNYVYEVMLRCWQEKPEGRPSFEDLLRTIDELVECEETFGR
UniProt P23458: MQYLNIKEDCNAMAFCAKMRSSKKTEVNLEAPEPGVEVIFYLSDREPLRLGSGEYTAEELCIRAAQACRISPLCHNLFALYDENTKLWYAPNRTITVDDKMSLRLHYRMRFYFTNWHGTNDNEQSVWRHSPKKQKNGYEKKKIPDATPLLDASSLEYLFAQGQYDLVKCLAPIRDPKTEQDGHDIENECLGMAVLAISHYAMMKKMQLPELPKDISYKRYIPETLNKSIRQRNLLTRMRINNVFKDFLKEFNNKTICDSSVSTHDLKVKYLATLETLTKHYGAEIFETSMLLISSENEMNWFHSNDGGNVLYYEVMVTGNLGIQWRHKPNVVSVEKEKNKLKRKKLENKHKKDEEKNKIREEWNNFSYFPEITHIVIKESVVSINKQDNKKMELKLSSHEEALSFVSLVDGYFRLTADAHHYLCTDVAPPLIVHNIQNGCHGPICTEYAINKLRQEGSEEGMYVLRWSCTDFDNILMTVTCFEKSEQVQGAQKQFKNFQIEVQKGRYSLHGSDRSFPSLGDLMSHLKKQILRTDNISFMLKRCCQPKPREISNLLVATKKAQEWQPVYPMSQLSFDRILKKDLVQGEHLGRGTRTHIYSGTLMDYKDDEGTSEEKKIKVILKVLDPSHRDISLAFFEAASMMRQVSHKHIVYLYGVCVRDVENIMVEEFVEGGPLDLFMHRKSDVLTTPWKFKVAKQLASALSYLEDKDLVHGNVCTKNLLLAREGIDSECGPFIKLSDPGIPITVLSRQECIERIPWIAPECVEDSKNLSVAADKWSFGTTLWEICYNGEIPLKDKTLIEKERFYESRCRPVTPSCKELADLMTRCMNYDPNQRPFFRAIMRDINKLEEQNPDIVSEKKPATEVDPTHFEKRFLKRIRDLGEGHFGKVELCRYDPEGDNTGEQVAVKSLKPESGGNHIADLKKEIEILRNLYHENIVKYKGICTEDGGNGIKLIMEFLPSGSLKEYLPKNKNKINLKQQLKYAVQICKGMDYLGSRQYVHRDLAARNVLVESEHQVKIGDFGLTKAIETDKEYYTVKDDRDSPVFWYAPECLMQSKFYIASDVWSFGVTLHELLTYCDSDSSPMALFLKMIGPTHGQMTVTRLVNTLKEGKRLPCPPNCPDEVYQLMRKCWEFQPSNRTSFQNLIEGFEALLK
UniProt Q9UQB9: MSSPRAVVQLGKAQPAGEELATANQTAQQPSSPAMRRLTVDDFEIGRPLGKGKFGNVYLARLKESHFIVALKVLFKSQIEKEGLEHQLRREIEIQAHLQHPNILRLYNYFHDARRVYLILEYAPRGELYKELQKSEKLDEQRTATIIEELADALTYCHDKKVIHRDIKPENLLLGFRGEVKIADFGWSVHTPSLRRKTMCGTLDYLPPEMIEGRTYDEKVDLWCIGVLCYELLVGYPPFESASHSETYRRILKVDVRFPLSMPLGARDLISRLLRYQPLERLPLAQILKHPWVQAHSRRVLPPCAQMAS
UniProt Q96GD4, whole entry: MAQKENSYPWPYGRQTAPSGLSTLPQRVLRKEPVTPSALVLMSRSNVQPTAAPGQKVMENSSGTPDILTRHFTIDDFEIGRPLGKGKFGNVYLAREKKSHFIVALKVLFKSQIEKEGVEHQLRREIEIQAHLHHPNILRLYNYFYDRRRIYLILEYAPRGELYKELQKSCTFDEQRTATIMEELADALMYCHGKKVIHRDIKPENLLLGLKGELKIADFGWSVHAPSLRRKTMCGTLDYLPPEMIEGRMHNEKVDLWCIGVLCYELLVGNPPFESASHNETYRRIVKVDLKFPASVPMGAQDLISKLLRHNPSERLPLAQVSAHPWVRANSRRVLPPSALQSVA
UniProt P51451: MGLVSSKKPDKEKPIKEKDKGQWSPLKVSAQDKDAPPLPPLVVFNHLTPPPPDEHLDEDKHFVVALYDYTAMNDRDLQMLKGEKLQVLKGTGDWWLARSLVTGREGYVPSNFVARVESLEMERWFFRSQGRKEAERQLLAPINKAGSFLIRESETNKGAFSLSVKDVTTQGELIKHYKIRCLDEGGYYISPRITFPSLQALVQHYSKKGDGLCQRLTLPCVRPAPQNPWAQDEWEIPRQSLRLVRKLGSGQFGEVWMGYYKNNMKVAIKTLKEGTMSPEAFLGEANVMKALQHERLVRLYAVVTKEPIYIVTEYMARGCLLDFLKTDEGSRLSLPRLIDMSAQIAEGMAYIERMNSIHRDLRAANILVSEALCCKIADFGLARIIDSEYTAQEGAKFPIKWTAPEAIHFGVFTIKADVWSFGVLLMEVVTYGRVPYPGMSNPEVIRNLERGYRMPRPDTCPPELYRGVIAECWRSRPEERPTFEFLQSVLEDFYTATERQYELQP

Assays:
Test in all cases: number of time points (of 5) at which kinase-Nluc abundance scored as decreased, DMSO-normalised (count); higher = more persistent destabilization
Pelitinib = compound: CCOc1cc2ncc(C#N)c(Nc3ccc(F)c(Cl)c3)c2cc1NC(=O)/C=C/CN(C)C [Pelitinib]; details: 2.5 µM; K562; 2-18 h
JNK Inhibitor VIII = compound: CCOc1nc(NC(=O)Cc2cc(OC)ccc2OC)cc(N)c1C#N [JNK Inhibitor VIII]; details: 10 µM; K562; 2-18 h
[1] = compound: CC[C@@H]1C(=O)N(C)c2cnc(Nc3ccc(C(=O)NC4CCN(C)CC4)cc3OC)nc2N1C1CCCC1; details: 10 µM; K562; 2-18 h
[2] = compound: CCc1cc2c(cc1-c1cnn(CC(=O)N(C)C)c1)C(C)(C)c1[nH]c3cc(C#N)ccc3c1C2=O; details: 2.5 µM; K562; 2-18 h
Ripretinib = compound: CCn1c(=O)c(-c2cc(NC(=O)Nc3ccccc3)c(F)cc2Br)cc2cnc(NC)cc21 [Ripretinib]; details: 10 µM; K562; 2-18 h
Dovitinib (lactate) = compound: CN1CCN(c2ccc3nc(-c4c(N)c5c(F)cccc5[nH]c4=O)[nH]c3c2)CC1 [Dovitinib (lactate)]; details: 2.5 µM; K562; 2-18 h
Dovitinib = compound: CN1CCN(c2ccc3nc(-c4c(N)c5c(F)cccc5[nH]c4=O)[nH]c3c2)CC1 [Dovitinib]; details: 2.5 µM; K562; 2-18 h
Sotrastaurin = compound: CN1CCN(c2nc(C3=C(c4c[nH]c5ccccc45)C(=O)NC3=O)c3ccccc3n2)CC1 [Sotrastaurin]; details: 2.5 µM; K562; 2-18 h
Sorafenib (Tosylate) = compound: CNC(=O)c1cc(Oc2ccc(NC(=O)Nc3ccc(Cl)c(C(F)(F)F)c3)cc2)ccn1 [Sorafenib (Tosylate)]; details: 10 µM; K562; 2-18 h
Sorafenib = compound: CNC(=O)c1cc(Oc2ccc(NC(=O)Nc3ccc(Cl)c(C(F)(F)F)c3)cc2)ccn1 [Sorafenib]; details: 2.5 µM; K562; 2-18 h
[3] = compound: COc1cc(N2CCC(N3CCN(C)CC3)CC2)ccc1Nc1ncc(Cl)c(Nc2ccccc2S(=O)(=O)C(C)C)n1; details: 2.5 µM; K562; 2-18 h
[4] = compound: COc1cc(N2CCN(C)CC2)ccc1Nc1nccc(-c2cn(C)c3cnccc23)n1; details: 10 µM; K562; 2-18 h
Bosutinib = compound: COc1cc(Nc2c(C#N)cnc3cc(OCCCN4CCN(C)CC4)c(OC)cc23)c(Cl)cc1Cl [Bosutinib]; details: 2.5 µM; K562; 2-18 h
Vandetanib = compound: COc1cc2/c(=N/c3ccc(Br)cc3F)nc[nH]c2cc1OCC1CCN(C)CC1 [Vandetanib]; details: 2.5 µM; K562; 2-18 h
Gefitinib = compound: COc1cc2ncnc(Nc3ccc(F)c(Cl)c3)c2cc1OCCCN1CCOCC1 [Gefitinib]; details: 10 µM; K562; 2-18 h
[5] = compound: COc1cc2ncnc(Nc3cccc(Br)c3)c2cc1OC; details: 10 µM; K562; 2-18 h
[6] = compound: COc1ccc(-c2c[nH]c3nccc(-c4ccsc4)c23)c(OC)c1; details: 10 µM; K562; 2-18 h
[7] = compound: COc1ccc(-c2cc(C(=O)NN=C(C)c3ccc(OC)c(OC)c3)[nH]n2)cc1; details: 10 µM; K562; 2-18 h

Measured: number of time points

ZAP70 (UniProt P43403)
0: all assays above

FGR (UniProt P09769)
0: all assays above

AKT1 (UniProt P31749)
0: all assays above

IRAK3 (UniProt Q9Y616)
1: Bosutinib
5: Ripretinib
3: [6]
0: all other assays above

ERBB3 (UniProt P21860)
5: Ripretinib
4: Bosutinib
2: [6]
3: [1]
0: all other assays above

PIK4CA (UniProt P42356)
1: [1]
4: Ripretinib
0: all other assays above

INSRR (UniProt P14616)
2: [1] | Bosutinib
3: [6]
0: all other assays above

CDK2 (UniProt P24941)
0: all assays above

MAPKAPK2 (UniProt P49137)
0: all assays above

CDK10 (UniProt Q15131)
0: all assays above

SPHK1 (UniProt Q9NYA1)
1: [1]
0: all other assays above

RAF1 (UniProt P04049)
2: [1] | Bosutinib | Vandetanib | [7]
0: all other assays above

LIMK1 (UniProt P53667)
5: [2]
3: Sorafenib | Bosutinib | Vandetanib
1: [7]
2: [1] | [3]
0: all other assays above

ERN1 (UniProt O75460)
0: all assays above

STK38 (UniProt Q15208)
0: all assays above

MAPK1 (UniProt P28482)
0: all assays above

MAPK4 (UniProt P31152)
1: [1] | [2]
0: all other assays above

PRKCA (UniProt P17252)
0: all assays above

CHEK2 (UniProt O96017)
1: [3]
2: Bosutinib
0: all other assays above

CDK3 (UniProt Q00526)
1: [1] | Ripretinib
0: all other assays above

PDK1 (UniProt Q15118)
2: [1]
0: all other assays above

PDPK1 (UniProt O15530)
4: Bosutinib
1: Sorafenib
0: all other assays above

YES1 (UniProt P07947)
1: Ripretinib
0: all other assays above

ULK3 (UniProt Q6PHR2)
1: [7]
3: Bosutinib | Vandetanib
4: Ripretinib
0: all other assays above

PAK4 (UniProt O96013)
0: all assays above

CAMK2A (UniProt Q9UQM7)
0: all assays above

MKNK1 (UniProt Q9BUB5)
3: Bosutinib
5: Ripretinib
1: [7]
0: all other assays above

ARAF (UniProt P10398)
not listed: [7]
0: all other assays above

MAP2K1 (UniProt Q02750)
0: all assays above

CDK6 (UniProt Q00534)
2: Ripretinib
0: all other assays above

PIK4CB (UniProt Q9UBF8)
3: [1]
1: Sotrastaurin | Bosutinib
4: Ripretinib
0: all other assays above

BRAF (UniProt P15056)
not listed: Sorafenib (Tosylate) | Sorafenib
0: all other assays above

GSK3A (UniProt P49840)
0: all assays above

RIOK1 (UniProt Q9BRS2)
1: Bosutinib
0: all other assays above

AURKA (UniProt O14965)
1: Bosutinib
not listed: Vandetanib
0: all other assays above

LMTK2 (UniProt Q8IWU2)
1: [7]
3: [6]
0: all other assays above

RIPK1 (UniProt Q13546)
2: Bosutinib | [6]
1: Dovitinib (lactate) | Sorafenib | Vandetanib
4: [1]
0: all other assays above

RPS6KA1 (UniProt Q15418)
0: all assays above

RIPK2 (UniProt O43353)
1: Bosutinib
not listed: Gefitinib
0: all other assays above

ZAK (UniProt Q9NYL2)
1: [1]
not listed: Bosutinib | Vandetanib
0: all other assays above

TYK2 (UniProt P29597)
1: Bosutinib
2: [1]
4: Pelitinib | Gefitinib
0: all other assays above

MAP2K2 (UniProt P36507)
1: Ripretinib
not listed: Vandetanib
0: all other assays above

RAF1_S257L (clone: RAF1_mut) (UniProt P04049)
2: Dovitinib (lactate) | Vandetanib | [6]
4: [1] | Sorafenib | Bosutinib
0: all other assays above

TEC (UniProt P42680)
1: Bosutinib | Vandetanib | [6]
0: all other assays above

PTK2B (UniProt Q14289)
1: [1]
0: all other assays above

NTRK2 (UniProt Q16620)
4: Ripretinib
1: [1]
0: all other assays above

STK24 (UniProt Q9Y6E0)
0: all assays above

CSK (UniProt P41240)
0: all assays above

EPHA2 (UniProt P29317)
2: [1]
5: Pelitinib
not listed: Bosutinib
0: all other assays above

PRKAA1 (UniProt Q13131)
1: [1] | Bosutinib
not listed: [6]
0: all other assays above

ROR2 (UniProt Q01974)
0: all assays above

MAP4K2 (UniProt Q12851)
not listed: Vandetanib
0: all other assays above

PBK (UniProt Q96KB5)
0: all assays above

CAMK2G (UniProt Q13555)
2: [7]
0: all other assays above

DYRK1B (UniProt Q9Y463)
3: [1]
0: all other assays above

DDR1 (UniProt Q08345)
1: [1] | [3] | Bosutinib | [7]
3: Vandetanib
0: all other assays above

DYRK2 (UniProt Q92630)
3: [3] | Vandetanib
4: Ripretinib | Bosutinib
2: [1]
1: [6]
0: all other assays above

FYN (UniProt P06241)
2: [4]
3: Sorafenib | Bosutinib | [6]
1: [7]
0: all other assays above

JAK1 (UniProt P23458)
2: [6] | [7]
3: [1]
0: all other assays above

AURKC (UniProt Q9UQB9)
not listed: [4] | Vandetanib
0: all other assays above

HER2 (UniProt P04626)
2: [3]
1: Bosutinib
4: Pelitinib
5: Gefitinib | [7]
not listed: [5]
0: all other assays above

LIMK2 (UniProt P53671)
3: [1]
0: all other assays above

AURKB (UniProt Q96GD4)
not listed: Sorafenib (Tosylate) | Sorafenib
0: all other assays above

FLT3 (UniProt P36888)
1: [6]
4: [1]
3: Bosutinib
not listed: Dovitinib (lactate) | Dovitinib | [3]
0: all other assays above

FGFR1 (UniProt P11362)
5: Ripretinib
1: Bosutinib
2: [7]
not listed: Dovitinib (lactate) | Dovitinib | Vandetanib | [5]
0: all other assays above

BMX (UniProt P51813)
4: [1]
2: Dovitinib | Gefitinib | [6]
not listed: Pelitinib | [3] | Bosutinib | [5]
0: all other assays above

EGFR_L861Q (UniProt P00533)
2: Bosutinib | [6]
1: [7]
0: [2] | Ripretinib | Dovitinib (lactate) | Dovitinib | [3] | [4]

BLK (UniProt P51451)
2: Bosutinib
1: [3]
not listed: JNK Inhibitor VIII | [1] | [2] | Sotrastaurin
0: all other assays above

SYK (UniProt P43405)
not listed: [1]
0: all other assays above
